For some assays here: At least one compound was matched to its structure with a doubt left. Some entries share one result that the patent states for a list of compounds.
What was measured:
[1] = system: Collagen Induced Arthritis; test: rat Collagen Induced Arthritis Model; format: in vivo
PI3K/Akt/mTor signaling = test: Kinase signaling in blood (phosflow); format: cell-based; conditions: splenocytes or peripheral blood mononuclear cells stimulated with anti-CD3

Row | Structure (SMILES) | EC50 in the rat Collagen Induced Arthritis Model [1] | anti-CD3 mediated phosphorylation of Akt —S473 (PI3K/Akt/mTor signaling) | anti-CD3 mediated phosphorylation of S6 (PI3K/Akt/mTor signaling)
1 | COc1cc(-c2cccc3cc([C@H](C)Nc4nc(N)ncc4C#N)n(-c4ccccc4)c(=O)c23)ccn1 [Compound 49] | less than 50 mg/kg |  | 
2 | CO[C@H]1C[C@@H]2CC[C@@H](C)[C@@](O)(O2)C(=O)C(=O)N2CCCC[C@H]2C(=O)O[C@H]([C@H](C)C[C@@H]2CC[C@@H](O)[C@H](OC)C2)CC(=O)[C@H](C)/C=C(\C)[C@@H](O)[C@@H](OC)C(=O)[C@H](C)C[C@H](C)/C=C/C=C/C=C/1C [rapamycin] |  | enhances Akt phosphorylation | inhibits S6 phosphorylation
3 | COc1ncc(-c2cccc3cc([C@H](C)Nc4nc(N)ncc4C#N)n(-c4ccccc4)c(=O)c23)cn1 [Compound 5, (S)-2-amino-4-((1-(8-(2-methoxypyrimidin-5-yl)-1-oxo-2-phenyl-1,2-dihydroisoquinolin-3-yl)ethyl)amino)pyrimidine-5-carbonitrile] | less than 50 mg/kg |  | 
4 | CC(C)n1c([C@H](C)Nc2ncnc(N)c2C#N)cc2cccc(-c3ccc(=O)n(C)c3)c2c1=O [Compound 359] | less than 50 mg/kg |  | 

Reference: patent US8785470B2, “Heterocyclic compounds and uses thereof” (Infinity Pharmaceuticals, Inc., priority 2011, dated 2014)
